# Results: PubChem BioAssay AID493014 (National Center for Advancing Translational Sciences (NCATS), 2011)
# About 170 (0.05%) of roughly 340,000 compounds were called active. The inconclusive results got no clear call from the source; some entries with a clear call stand among them for comparison. Calls follow the shape of the dose curve; as a rule, active = well fitted inhibition curve with a large enough effect in the signal ratio, with a control signal flat (not every such curve was filed as active); inconclusive = small, poorly fitted or top-dose-only effect, or effect the other way, or a change in a side signal; inactive = flat fitted curve, though single readings scatter; the % refers to the signal ratio. Potencies of inconclusive entries are doubtful fits and often do not repeat.
# Test: qHTS Assay to Find Inhibitors of Chronic Active B-Cell Receptor Signaling;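 as to activity change, negative = inhibition: plate controls were basal doxycycline-induced cells for no effect and cells given 10 µM MG132 for full effect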
# Settings: ABC-DLBCL IkBa-CBG/CBR reporter, luminescence ratio (green luciferase fused to IkBa over red control in TMD8 lymphoma cells), 4 h; activity change, negative = inhibition: at 46.1 µM (top of the series) unless noted
# Procedure, shortened: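 Compounds up to 46 uM were incubated four hours with TMD8 cells whose green CBG68 luciferase is fused to IkappaBalpha; red CBR luminescence normalised the signal, and concentration-effect curves were fitted to fusion, red and ratio data.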
# Potency is read from the fitted curve at half-maximal effect.
Compound,"activity change, negative = inhibition",Potency
N#Cc1ccc(Oc2cccnc2)cc1C#N,inconclusive: 1.83%,–
CC(=O)N1CCN(C(=O)CSc2cc(C)c(Br)cc2C)CC1,inconclusive: 4.38%,–
O=C(CCc1nnc(CCCCc2ccccc2)o1)N(CCO)Cc1ccccc1,inconclusive: 5.04%,–
O=C(NC1CCS(=O)(=O)C1)c1ccc(-c2ccc(Br)cc2)o1 (stereo not drawn),–,"inconclusive: 25.1 µM [falling, partial curve, poor fit]"
N#C/C(=C\c1coc2ccc(O)cc2c1=O)C(=O)Nc1nc2ccccc2s1,inconclusive: -13.8%,–
O=C(O)c1cc(-c2ccc3ccccc3c2)nc2ccc(F)cc12,–,"inconclusive: 22.4 µM [falling, single point]"
CS(=O)(=O)Nc1ccc(C2=NN(C(=O)c3ccco3)C(c3ccccc3)C2)cc1 (stereo not drawn),inconclusive: -0.439%,–
Cc1cc(C)c(S(=O)(=O)c2ccc(C(C)(C)C)cc2)c(Cl)n1,inactive: -2.47%,–
COc1ccc([C@@H]2C[C@@H](c3ccccc3)Oc3cc(OC)c(OC)c(OC)c32)cc1,inactive: 1.54%,–
COc1ccc(-c2ccccc2)cc1NC(=O)c1cccs1,inactive: -6.7%,–
Cc1ccc(/C=C/c2nc3ccccc3[nH]2)cc1,inconclusive: 220%,–
COc1ccccc1Cn1c(=S)[nH]c2cc(C(=O)NCCN3CCOCC3)ccc2c1=O,inconclusive: -3.03%,–
CC(C)S(=O)(=O)c1cnc(-c2cccnc2)nc1N,inconclusive: 2.69%,–
CCC(c1nnnn1Cc1ccccc1)N(Cc1ccco1)Cc1cc2cc(OC)ccc2[nH]c1=O (stereo not drawn),–,"inconclusive: 35.5 µM [falling, partial curve, poor fit]"
CCn1c(C)nc2c(=O)oc3ccccc3c21,inconclusive: -24.5%,–
CCCCn1c(=O)n(Cc2cccc(F)c2)c(=O)c2c1ncn2Cc1ccco1,inconclusive: 1.96%,–
Cc1ccc2nc(N3C(=O)C(O)=C(C(=O)c4ccco4)C3c3cccc(O)c3)sc2c1 (stereo not drawn),–,"inconclusive: 2.51 µM [falling, partial curve, poor fit]"
Fc1c(F)c(F)c(N/N=C/c2c[nH]c3ccccc23)c(F)c1F,inconclusive: 15.9%,–
O=C(/C=C/c1c(Cl)cccc1Cl)NCc1ccccc1,inconclusive: 5.12%,–
Cc1ccc(CNC(=O)C2CC2c2ccccc2)cc1 (stereo not drawn),inconclusive: 11.1%,–
CC1CCCC(NC(=O)c2ccc3c(c2)OCO3)C1C (stereo not drawn),–,"inconclusive: 18.4 µM [falling, partial curve, poor fit]"
COc1ccc(C/C(N)=N/OC(=O)Cc2ccccc2)cc1,inconclusive: 10.9%,–
COC(=O)c1cc(C(=O)c2ccc(Cl)cc2)n2c(=O)/c(=C\N(C)C)sc12,inactive: -3.29%,–

# One compound at a time (already shown).
# Cc1ccc2nc(N3C(=O)C(O)=C(C(=O)c4ccco4)C3c3cccc(O)c3)sc2c1 (stereo not drawn) in the list: Potency: inconclusive: 2.51 µM [falling, partial curve, poor fit]
# COC(=O)c1cc(C(=O)c2ccc(Cl)cc2)n2c(=O)/c(=C\N(C)C)sc12 in the list: activity change, negative = inhibition: inactive: -3.29%
